Measured values from the supplement of paper PMC10849652.
The list shows a part of the results.

Sequences of proteins named here, by UniProt entry; tags and fusion partners are left off. A change or cut given only in a name is not applied to a line headed by its entry.
UniProt Q9BUK0: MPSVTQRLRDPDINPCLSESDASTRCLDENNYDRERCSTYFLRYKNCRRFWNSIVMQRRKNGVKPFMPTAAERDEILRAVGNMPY
UniProt Q8WUD6: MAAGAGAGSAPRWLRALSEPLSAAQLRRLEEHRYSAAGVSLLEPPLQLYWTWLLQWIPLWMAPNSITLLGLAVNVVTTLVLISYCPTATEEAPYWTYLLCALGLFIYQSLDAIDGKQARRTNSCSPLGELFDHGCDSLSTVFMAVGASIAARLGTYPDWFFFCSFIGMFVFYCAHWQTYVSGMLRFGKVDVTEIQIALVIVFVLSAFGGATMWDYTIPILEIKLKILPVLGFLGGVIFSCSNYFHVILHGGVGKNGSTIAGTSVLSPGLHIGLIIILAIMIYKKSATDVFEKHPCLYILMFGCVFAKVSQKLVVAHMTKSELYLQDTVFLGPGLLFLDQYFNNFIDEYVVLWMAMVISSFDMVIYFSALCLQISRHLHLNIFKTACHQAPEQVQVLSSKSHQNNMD
UniProt Q8N0X4: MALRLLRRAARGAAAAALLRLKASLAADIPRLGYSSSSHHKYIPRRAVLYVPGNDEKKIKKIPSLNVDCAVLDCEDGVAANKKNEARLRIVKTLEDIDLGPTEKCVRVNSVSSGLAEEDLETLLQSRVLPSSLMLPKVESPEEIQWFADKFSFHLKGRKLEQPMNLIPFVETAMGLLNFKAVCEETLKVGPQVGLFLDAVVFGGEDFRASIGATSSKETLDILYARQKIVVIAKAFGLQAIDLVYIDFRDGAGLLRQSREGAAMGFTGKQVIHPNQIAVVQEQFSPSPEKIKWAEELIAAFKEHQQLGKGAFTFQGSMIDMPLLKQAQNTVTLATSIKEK
UniProt Q9Y4C5: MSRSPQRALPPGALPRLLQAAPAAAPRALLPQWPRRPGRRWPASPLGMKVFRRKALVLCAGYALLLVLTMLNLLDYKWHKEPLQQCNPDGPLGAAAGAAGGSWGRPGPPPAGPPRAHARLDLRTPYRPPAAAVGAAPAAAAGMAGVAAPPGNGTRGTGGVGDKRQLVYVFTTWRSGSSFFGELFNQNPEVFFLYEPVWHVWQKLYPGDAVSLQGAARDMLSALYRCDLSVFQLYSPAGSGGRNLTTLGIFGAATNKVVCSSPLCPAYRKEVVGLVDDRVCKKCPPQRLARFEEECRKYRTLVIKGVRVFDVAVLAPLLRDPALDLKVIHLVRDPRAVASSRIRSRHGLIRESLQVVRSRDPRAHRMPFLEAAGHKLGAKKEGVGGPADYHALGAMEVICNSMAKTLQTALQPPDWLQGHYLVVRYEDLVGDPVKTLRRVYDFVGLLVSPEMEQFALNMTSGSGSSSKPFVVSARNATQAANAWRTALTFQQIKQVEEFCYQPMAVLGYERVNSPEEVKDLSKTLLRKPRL
UniProt P56277: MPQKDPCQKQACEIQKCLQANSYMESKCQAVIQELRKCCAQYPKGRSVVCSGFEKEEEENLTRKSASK
UniProt Q9BW66: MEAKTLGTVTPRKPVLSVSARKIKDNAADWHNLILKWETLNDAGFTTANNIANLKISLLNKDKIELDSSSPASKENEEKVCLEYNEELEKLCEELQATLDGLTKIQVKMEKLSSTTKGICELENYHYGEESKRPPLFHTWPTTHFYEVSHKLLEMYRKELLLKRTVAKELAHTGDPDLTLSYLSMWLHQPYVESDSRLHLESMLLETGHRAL
UniProt Q9NSE2: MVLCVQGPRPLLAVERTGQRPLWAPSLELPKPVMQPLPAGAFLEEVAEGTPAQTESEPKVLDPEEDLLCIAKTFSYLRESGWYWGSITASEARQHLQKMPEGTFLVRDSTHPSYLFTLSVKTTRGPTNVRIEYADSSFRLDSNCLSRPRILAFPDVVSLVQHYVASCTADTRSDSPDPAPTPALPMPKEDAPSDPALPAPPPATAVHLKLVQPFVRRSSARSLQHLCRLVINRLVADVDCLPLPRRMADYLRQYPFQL
UniProt Q9Y240: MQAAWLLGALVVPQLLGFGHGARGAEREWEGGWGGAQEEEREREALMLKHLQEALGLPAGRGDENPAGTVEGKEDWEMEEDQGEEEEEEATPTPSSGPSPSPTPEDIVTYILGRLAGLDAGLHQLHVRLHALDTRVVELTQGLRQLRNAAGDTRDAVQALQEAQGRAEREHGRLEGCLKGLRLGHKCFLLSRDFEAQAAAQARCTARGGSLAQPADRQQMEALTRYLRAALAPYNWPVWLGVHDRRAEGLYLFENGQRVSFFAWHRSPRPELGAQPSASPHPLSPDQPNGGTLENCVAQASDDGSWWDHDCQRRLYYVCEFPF
UniProt Q9UBR5: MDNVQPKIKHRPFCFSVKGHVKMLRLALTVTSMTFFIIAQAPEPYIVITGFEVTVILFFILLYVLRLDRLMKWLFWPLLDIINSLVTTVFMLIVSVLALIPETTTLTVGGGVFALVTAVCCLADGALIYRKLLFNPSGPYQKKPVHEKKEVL
UniProt Q8NCH0: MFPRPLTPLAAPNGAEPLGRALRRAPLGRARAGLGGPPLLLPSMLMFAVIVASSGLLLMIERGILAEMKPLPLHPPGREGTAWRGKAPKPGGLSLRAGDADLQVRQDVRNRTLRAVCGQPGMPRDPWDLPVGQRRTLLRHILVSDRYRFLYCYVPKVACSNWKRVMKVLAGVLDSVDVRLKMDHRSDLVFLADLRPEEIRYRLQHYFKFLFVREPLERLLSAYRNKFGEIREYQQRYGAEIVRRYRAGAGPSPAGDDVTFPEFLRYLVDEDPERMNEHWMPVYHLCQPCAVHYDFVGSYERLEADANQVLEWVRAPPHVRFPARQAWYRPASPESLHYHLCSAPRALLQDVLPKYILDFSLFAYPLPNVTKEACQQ
UniProt P33552, whole entry, looked up: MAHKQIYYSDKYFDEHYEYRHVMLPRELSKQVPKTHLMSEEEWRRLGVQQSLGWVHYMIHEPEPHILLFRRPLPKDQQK
UniProt O75122: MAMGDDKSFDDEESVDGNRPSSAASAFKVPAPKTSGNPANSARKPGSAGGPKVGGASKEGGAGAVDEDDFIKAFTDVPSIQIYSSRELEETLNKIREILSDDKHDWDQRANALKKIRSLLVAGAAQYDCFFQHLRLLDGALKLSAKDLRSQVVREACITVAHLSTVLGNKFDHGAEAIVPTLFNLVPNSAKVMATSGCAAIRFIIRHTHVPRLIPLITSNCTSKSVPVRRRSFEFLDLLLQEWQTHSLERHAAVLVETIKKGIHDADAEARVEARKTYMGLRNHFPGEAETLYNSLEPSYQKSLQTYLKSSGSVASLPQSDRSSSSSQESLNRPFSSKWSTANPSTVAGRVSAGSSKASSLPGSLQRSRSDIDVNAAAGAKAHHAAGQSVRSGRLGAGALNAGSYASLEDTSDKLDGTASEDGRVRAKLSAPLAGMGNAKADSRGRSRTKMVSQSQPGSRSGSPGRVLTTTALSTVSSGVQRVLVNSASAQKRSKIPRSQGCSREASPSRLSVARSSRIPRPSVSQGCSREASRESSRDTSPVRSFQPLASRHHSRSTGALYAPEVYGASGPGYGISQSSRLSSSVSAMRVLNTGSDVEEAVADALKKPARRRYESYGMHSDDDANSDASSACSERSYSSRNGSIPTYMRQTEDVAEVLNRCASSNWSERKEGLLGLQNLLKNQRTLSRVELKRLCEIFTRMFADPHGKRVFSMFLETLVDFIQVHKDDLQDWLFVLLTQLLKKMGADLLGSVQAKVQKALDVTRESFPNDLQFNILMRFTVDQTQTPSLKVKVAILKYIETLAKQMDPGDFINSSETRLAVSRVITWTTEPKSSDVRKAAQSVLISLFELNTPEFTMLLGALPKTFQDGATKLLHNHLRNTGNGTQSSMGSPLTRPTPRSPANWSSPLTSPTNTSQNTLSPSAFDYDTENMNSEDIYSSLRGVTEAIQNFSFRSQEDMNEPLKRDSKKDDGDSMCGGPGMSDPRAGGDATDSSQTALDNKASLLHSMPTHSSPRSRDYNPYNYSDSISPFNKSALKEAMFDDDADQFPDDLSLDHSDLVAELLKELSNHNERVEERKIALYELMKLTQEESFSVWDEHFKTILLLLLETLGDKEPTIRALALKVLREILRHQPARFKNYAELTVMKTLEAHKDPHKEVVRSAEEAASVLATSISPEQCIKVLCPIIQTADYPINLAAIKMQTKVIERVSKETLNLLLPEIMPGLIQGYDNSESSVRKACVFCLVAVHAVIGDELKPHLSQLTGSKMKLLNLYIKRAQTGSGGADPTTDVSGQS
UniProt P51795: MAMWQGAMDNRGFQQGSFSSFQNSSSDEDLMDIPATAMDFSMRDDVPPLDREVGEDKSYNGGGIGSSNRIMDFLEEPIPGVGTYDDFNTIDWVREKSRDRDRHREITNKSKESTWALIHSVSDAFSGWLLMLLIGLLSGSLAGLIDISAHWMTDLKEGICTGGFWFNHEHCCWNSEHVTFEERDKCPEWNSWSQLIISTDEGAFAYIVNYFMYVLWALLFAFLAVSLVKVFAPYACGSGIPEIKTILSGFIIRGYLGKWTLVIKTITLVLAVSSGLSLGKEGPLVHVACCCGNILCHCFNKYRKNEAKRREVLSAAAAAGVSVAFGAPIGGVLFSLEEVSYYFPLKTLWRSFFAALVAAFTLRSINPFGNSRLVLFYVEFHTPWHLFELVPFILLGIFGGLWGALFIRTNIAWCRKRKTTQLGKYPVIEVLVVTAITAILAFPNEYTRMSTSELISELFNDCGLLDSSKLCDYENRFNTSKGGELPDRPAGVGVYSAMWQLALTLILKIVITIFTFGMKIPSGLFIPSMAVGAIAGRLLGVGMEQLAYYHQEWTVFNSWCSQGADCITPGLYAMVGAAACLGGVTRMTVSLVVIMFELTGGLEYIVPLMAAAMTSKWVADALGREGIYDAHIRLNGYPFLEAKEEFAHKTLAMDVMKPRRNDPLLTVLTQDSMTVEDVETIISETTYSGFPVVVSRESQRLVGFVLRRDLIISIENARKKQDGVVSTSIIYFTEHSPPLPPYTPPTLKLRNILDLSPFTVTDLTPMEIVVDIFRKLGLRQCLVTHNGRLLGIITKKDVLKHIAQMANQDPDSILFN
UniProt Q14677: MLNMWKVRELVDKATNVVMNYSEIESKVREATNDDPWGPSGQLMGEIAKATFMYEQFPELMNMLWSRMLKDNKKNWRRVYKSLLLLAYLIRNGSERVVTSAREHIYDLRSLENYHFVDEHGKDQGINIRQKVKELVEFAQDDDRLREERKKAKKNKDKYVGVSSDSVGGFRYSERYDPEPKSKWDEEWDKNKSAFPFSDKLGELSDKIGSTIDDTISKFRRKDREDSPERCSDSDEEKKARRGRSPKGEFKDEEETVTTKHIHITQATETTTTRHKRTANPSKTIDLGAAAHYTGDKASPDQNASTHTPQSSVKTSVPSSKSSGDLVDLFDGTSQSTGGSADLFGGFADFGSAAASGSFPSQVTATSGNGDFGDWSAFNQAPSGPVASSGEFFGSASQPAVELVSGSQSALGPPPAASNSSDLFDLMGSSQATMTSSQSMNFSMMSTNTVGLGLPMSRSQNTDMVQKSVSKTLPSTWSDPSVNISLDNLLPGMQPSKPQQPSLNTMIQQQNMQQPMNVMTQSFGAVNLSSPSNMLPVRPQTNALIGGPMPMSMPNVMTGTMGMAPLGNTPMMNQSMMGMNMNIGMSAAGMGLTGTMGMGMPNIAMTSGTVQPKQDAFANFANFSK
UniProt Q15846: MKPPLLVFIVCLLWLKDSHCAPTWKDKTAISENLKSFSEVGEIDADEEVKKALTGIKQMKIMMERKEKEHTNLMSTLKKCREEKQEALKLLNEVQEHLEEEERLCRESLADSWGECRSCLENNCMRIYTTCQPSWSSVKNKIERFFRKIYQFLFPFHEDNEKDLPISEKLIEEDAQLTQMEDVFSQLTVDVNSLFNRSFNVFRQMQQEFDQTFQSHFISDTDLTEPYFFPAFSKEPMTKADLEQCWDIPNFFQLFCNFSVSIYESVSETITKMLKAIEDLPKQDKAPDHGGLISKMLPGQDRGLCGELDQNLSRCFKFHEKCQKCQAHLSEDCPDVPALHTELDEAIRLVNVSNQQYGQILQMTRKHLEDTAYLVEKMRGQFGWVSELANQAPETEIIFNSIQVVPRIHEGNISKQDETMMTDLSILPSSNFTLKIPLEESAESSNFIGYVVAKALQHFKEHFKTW
UniProt Q86X95: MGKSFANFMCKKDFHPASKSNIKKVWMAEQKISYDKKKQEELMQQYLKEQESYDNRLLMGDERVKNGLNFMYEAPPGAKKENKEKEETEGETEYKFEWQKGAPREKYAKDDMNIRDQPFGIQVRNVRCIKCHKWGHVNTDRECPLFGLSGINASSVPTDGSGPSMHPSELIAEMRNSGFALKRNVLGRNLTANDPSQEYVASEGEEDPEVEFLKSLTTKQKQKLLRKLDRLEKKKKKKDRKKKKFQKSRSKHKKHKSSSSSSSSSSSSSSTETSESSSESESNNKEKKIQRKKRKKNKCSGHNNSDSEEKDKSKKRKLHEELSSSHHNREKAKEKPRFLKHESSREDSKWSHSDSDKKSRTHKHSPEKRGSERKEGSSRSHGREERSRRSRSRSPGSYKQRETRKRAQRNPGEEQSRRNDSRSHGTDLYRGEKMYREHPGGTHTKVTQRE
UniProt Q9BSY4: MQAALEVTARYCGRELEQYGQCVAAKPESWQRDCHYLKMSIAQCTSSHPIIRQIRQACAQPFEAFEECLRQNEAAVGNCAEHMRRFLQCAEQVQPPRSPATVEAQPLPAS

How the values were obtained:
Assay in all cases: log2 fold change, soluble protein after heating vs DMSO (PISA); higher = thermal stabilisation; K562 lysate, 10 uM; active = over 0.2 and 3.5 SD of the protein, either way, in both replicates (recomputed)
erlotinib = compound: C#Cc1cccc(Nc2ncnc3cc(OCCOC)c(OCCOC)cc23)c1 [erlotinib]
Method in brief: (§1)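 A 30 min treatment with 10 μM compound was applied to crude K562 extract at 1 mg/mL protein in PBS pH 7.4 with 1 mM MgCl2. Heating for 3 min spanned 48°C-58°C, after which aliquots were pooled, adjusted to 0.5% NP-40 at 4°C and spun at 21,000xg for 90 min. TMTpro 16plex LC-MS/MS of the supernatant, with channel sums equalised, gave values recorded as log-two fold change in thermal stability against solvent controls, from duplicates.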

[1] = compound: C1=CC(=CC=C1C2=NC3=C(N2)C=C(C=C3)C(=O)N)OC4=CC=C(C=C4)Cl
Method in brief: as §1

[2] = compound: C1=CC=C(C=C1)C2=NC(=C(N2)C3=CC=NC=C3)C4=CC(=C(C=C4)Cl)O
Method in brief: as §1

IRAK-1-4 Inhibitor I = compound: C1COCCN1CCN2C3=CC=CC=C3N=C2NC(=O)C4=CC(=CC=C4)[N+](=O)[O-] [IRAK-1-4 Inhibitor I]
Method in brief: as §1

[3] = compound: CC(=O)c1cnc2ccc(-c3cc(Cl)c(O)c(Cl)c3)nc2c1N[C@H]1CC[C@H](CN(C)C)CC1
Method in brief: as §1

ralimetinib = compound: CC(C)(C)Cn1c(N)nc2ccc(-c3[nH]c(C(C)(C)C)nc3-c3ccc(F)cc3)nc21 [ralimetinib]
Method in brief: as §1

[4] = compound: CC(C)(O)CC(=O)NCCn1ccc2ncnc(Nc3ccc(Oc4cccc(C(F)(F)F)c4)c(Cl)c3)c21
Method in brief: as §1

[5] = compound: CC(C)C1=C2N=C(C=C(N2N=C1)NCC3=CC=CC=C3)NCCCCCCN
Method in brief: as §1

[6] = compound: CC1=C(C(CC(=O)N1)C2=CC=C(C=C2)C(F)(F)F)C(=O)NC3=C(C=C4C(=C3)C=NN4)F
Method in brief: as §1

[7] = compound: CC1=C(C2=C(C=C1)C(=O)C3=CC=CC=C3N2CCCN)C
Method in brief: as §1

[8] = compound: CC1=C(C=C(C=C1)NC(=O)C2=CC(=CC=C2)C(C)(C)C#N)NC3=CC4=C(C=C3)N=CN(C4=O)C
Method in brief: as §1

[9] = compound: CC1=C(C=C(C=C1)NC(=O)C2=CC(=CC=C2)N(C)C)NC(=O)C3=CC=C(C=C3)O
Method in brief: as §1

[10] = compound: CC1=CC=C(C=C1)SC2=C3C=C(SC3=CN=C2)C(=O)N
Method in brief: as §1

[11] = compound: C1CCN(C1)C(=O)NC2=CC=CC(=C2)NC3=NC=C(C(=N3)NCCC4=CN=CN4)Br
Method in brief: as §1

[12] = compound: C1CN(CCC1(CC2=CC=C(C=C2)Cl)N)C3=NC=NC4=C3C=CN4
Method in brief: as §1

[13] = compound: C/C(=N\NC(=O)C1=CC(=CC=C1)S(=O)(=O)N2CCOCC2)/C3=C(C=CC(=C3)Cl)O
Method in brief: as §1

[14] = compound: C1=CC2=C(C=CC(=C2)/C=C\3/C(=O)NC(=NCC4=CC=CS4)S3)N=C1
Method in brief: as §1

[15] = compound: C1=CC2=NC=CN=C2C=C1/C=C/3\C(=O)NC(=O)S3
Method in brief: as §1

[16] = compound: C1=CC=C2C(=C1)C3=NNC4=CC=CC(=C43)C2=O
Method in brief: as §1

ibrutinib = compound: C=CC(=O)N1CCC[C@@H](n2nc(-c3ccc(Oc4ccccc4)cc3)c3c(N)ncnc32)C1 [ibrutinib]
Method in brief: as §1

Measured: log2 fold change

CLSTN3 isoform 2 (UniProt Q9BQT9)
inactive: erlotinib -0.018 | [1] 0.003 | [2] 0.043 | IRAK-1-4 Inhibitor I 0.042 | [3] 0.02 | ralimetinib 0.036 | [4] -0.076 | [5] 0.039 | [6] -0.024 | [7] -0.065 | [8] -0.144 | [9] -0.041 | [10] -0.043

CLDN7 (UniProt O95471)
inactive: [11] -0.221 | [12] -0.081

CHCHD7 isoform 4 (UniProt Q9BUK0)
inactive: [13] -0.158 | [14] 0.048 | [15] 0.014 | [2] 0.046 | [16] -0.012 | [11] 0.006 | [12] 0.072 | IRAK-1-4 Inhibitor I -0.025 | ibrutinib -0.109 | [3] 0.008 | ralimetinib -0.038 | [4] -0.014 | [6] 0.116 | [7] 0.002 | [8] -0.025 | [9] 0.024 | [10] -0.061

CKAP4 (UniProt Q07065)
inactive: [15] -0.015 | [11] 0.27 | [12] 0.261 | ibrutinib 0.058 | [3] 0.001 | [7] 0.071 | [8] -0.054 | [10] 0.025

CHPT1 (UniProt Q8WUD6)
inactive: [15] -0.089 | [2] 0.067 | IRAK-1-4 Inhibitor I -0.116 | ibrutinib 0.085 | ralimetinib -0.057 | [4] -0.222 | [9] 0.127

CLSTN1 (UniProt O94985)
inactive: [2] 0.037 | [11] -0.036 | [12] -0.04 | IRAK-1-4 Inhibitor I 0.237 | [3] -0.266 | ralimetinib -0.071 | [4] 0.166 | [6] -0.102 | [8] -0.123 | [9] -0.345 | [10] 0.046

CHD4, A0A2R8Y521
inactive: [2] 0.259 | [11] -0.033 | [12] 0.261 | IRAK-1-4 Inhibitor I 0.178 | [3] -0.049 | ralimetinib -0.175 | [4] -0.011 | [6] -0.19 | [7] 0.191 | [9] 0.228 | [10] 0.314

CLYBL (UniProt Q8N0X4)
inactive: [13] 0.114 | [14] -0.088 | [15] -0.135 | [2] 0.07 | [16] -0.231 | [11] -0.131 | [12] 0.12 | IRAK-1-4 Inhibitor I 0.01 | [3] -0.169 | ralimetinib 0.031 | [4] -0.022 | [6] 0.105 | [7] 0.034 | [8] -0.299 | [9] -0.086 | [10] 0.095

CHST2 (UniProt Q9Y4C5)
inactive: [15] 0.171 | ibrutinib 0.092 | [3] 0.011 | [7] -0.164 | [8] -0.173 | [10] 0.077

CMC4 (UniProt P56277)
inactive: erlotinib -0.027 | [1] 0.037 | [3] 0.093 | [5] 0.013 | [6] 0.103 | [8] -0.331 | [10] -0.028

CHIC1 (UniProt Q5VXU3)
inactive: [13] -0.078 | [14] -0.044 | [16] -0.037

CHMP4A (UniProt H0YIN6)
inactive: [15] 0.06 | [2] -0.055 | IRAK-1-4 Inhibitor I 0.142 | ibrutinib -0.077 | [3] -0.203 | ralimetinib -0.253 | [4] -0.354 | [7] -0.055 | [8] 0.33 | [9] 0.15 | [10] -0.159

CINP isoform 3 (UniProt Q9BW66)
inactive: [13] 0.016 | [14] 0.015 | [15] -0.015 | [2] 0.081 | [16] -0.102 | [11] -0.015 | [12] -0.056 | IRAK-1-4 Inhibitor I 0.074 | ibrutinib 0 | [3] -0.012 | ralimetinib 0.047 | [4] -0.051 | [6] 0.072 | [7] -0.168 | [8] 0.039 | [9] 0.009 | [10] -0.005

CISH isoform 3 (UniProt Q9NSE2)
inactive: [13] -0.018 | [14] 0.12 | [16] 0.188

CLIP1, A0A3B3ITA2
inactive: [13] 0.025 | [14] 0.004 | [2] -0.039 | [16] -0.103 | IRAK-1-4 Inhibitor I 0.121 | ralimetinib 0.156 | [4] -0.173 | [8] 0.019 | [9] -0.215

CLEC11A (UniProt Q9Y240)
inactive: erlotinib -0.006 | [1] -0.183 | [11] 0.005 | [12] -0.133 | [3] 0.025 | [5] 0.022 | [8] -0.043 | [10] 0.189

CKLF (UniProt Q9UBR5)
inactive: [2] -0.151 | IRAK-1-4 Inhibitor I 0.082 | [3] 0.055 | ralimetinib -0.076 | [4] -0.033 | [7] -0.124 | [8] 0.032 | [9] -0.04 | [10] 0.376

CHST14 (UniProt Q8NCH0)
inactive: [6] 0.022 | [7] -0.156 | [8] 0.008

CKS2 (UniProt P33552)
inactive: [13] 0.06 | [14] 0.038 | [16] 0.104 | [11] -0.167 | [12] 0.136 | [6] 0.029

CLASP2 (UniProt O75122)
inactive: [13] -0.114 | [14] 0.12 | [15] -0.225 | [2] -0.044 | [16] -0.059 | [11] 0 | [12] 0.023 | IRAK-1-4 Inhibitor I -0.017 | [3] -0.048 | ralimetinib 0.075 | [4] 0.069 | [6] 0.044 | [8] -0.098 | [9] 0.001 | [10] -0.028

CIC (UniProt I3L1Q4)
inactive: [15] -0.03 | ibrutinib 0.005

CKMT2 (UniProt D6RHV3)
inactive: [3] -0.086 | [10] -0.009

CLCN5 isoform 2 (UniProt P51795)
inactive: erlotinib -0.026 | [1] 0.019 | [2] 0.25 | IRAK-1-4 Inhibitor I 0.112 | [3] -0.109 | ralimetinib 0.135 | [4] -0.157 | [5] 0.028 | [9] -0.117 | [10] -0.165

CLINT1 (UniProt Q14677)
inactive: [13] -0.111 | [14] 0.095 | [15] -0.086 | [16] 0.055 | [11] -0.114 | [12] -0.071 | [7] 0.005 | [8] -0.038

Looked up one by one from the entries so far, two records:
CLINT1 (UniProt Q14677)
inactive: [13] -0.111 | [14] 0.095 | [15] -0.086 | [16] 0.055 | [11] -0.114 | [12] -0.071 | [7] 0.005 | [8] -0.038

CLASP2 (UniProt O75122)
inactive: [13] -0.114 | [14] 0.12 | [15] -0.225 | [2] -0.044 | [16] -0.059 | [11] 0 | [12] 0.023 | IRAK-1-4 Inhibitor I -0.017 | [3] -0.048 | ralimetinib 0.075 | [4] 0.069 | [6] 0.044 | [8] -0.098 | [9] 0.001 | [10] -0.028

Additional results

CLUL1 (UniProt Q15846)
inactive: [13] 1.3 | [14] 0.053 | [15] -0.352 | [16] 0.115 | [3] 0.056 | [6] 0.054 | [10] -0.006

CITED2 (UniProt Q99967)
inactive: erlotinib 0.235 | [1] -0.031 | [5] 0.015 | [7] -0.032

CIR1 (UniProt Q86X95)
inactive: [2] -0.162 | [11] 0.069 | [12] -0.018 | IRAK-1-4 Inhibitor I 0.082 | [3] -0.062 | ralimetinib -0.236 | [4] 0.033 | [7] -0.162 | [8] 0 | [9] 0.067 | [10] -0.01

CHCHD5 (UniProt Q9BSY4)
inactive: erlotinib -0.039 | [1] -0.001 | [2] -0.146 | IRAK-1-4 Inhibitor I -0.147 | ralimetinib -0.033 | [4] 0.024 | [5] -0.034 | [6] -0.022 | [7] 0 | [8] -0.146 | [9] -0.029

CLK2 (UniProt P49760)
inactive: [3] 0.054 | [7] 0.043 | [8] -0.003 | [10] 0.049

CHURC1-FNTB (UniProt B4DL54)
inactive: [11] -0.05 | [12] 0.055 | [8] 0.268
